Series [1] concerns mTORC1 downstream target S6Kinase. Description: pS6K ELISA (phospho-S6Kinase relative to total S6Kinase) in FL83B cells. Format: cell-based, mouse. As to conditions: 2 h treatment, Figure 1A. Here is the method: The Mus musculus (mouse) normal hepatocyte liver cell line (FL83B) was purchased from American Type Culture Collection (Manassas, VA, USA). FL83B cells were cultured in Dulbecco's modified Eagle's medium/Ham's F-12 50/50 Mix with L-glutamine and 15 mM HEPES and 10% fetal bovine serum (FBS), both from Corning (Fremont, CA, USA). The cell line was grown at the standard 37 °C and 5% CO2 conditions. All drug treatment was performed in the absence of pen/strep and FBS. The PathScan® Phospho-[…] (Thr389) Sandwich ELISA and PathScan® Total S6K Sandwich ELISA Kits were purchased from Cell Signaling Technologies (Danvers, MA). In addition, 200,000 cells/well were seeded onto 24-well plates and allowed to grow for 48 h; the media were changed to DMEM-F12 without FBS for the FL83B and standard Neurobasal for the Stem Cells, and cells were incubated for another 18 to 20 h. Cells were treated for two hours with tested compounds at indicated concentrations; the media were aspirated, and plates were washed once with ice-cold PBS. Cells were lysed with 200 μL of lysis buffer; lysates were transferred to a 96-well plate for ELISA. ELISA was performed according to manufacturer's instructions.

For series [2], the system named is mTORC1 downstream target pS6K. Description: pS6K ELISA in patient-derived glioblastoma stem cells. It is filed as cell-based, human. Conditions: single dose of 10 µM, Figure 1B. Here is the method:
The GBMSC lines used were patient-derived from recurring tumors and gifted to us by Kevin Woolard DVM, PhD from the University of California Davis. The cell lines were named 0827 and 0923. 0827 is the only IDH1 WT cell line used in the main figures in the manuscript and is referred to as IDH1 wildtype in Figure 6. 923 is used only in appendix and is referred to as “IDH1 WT” in Appendix A Figure A1 and “GB SC 2” in Appendix A Figure A2. The 0827 and 923 GBM stem cells were cultured in Neurobasal A minimal media with 1X N-2 supplement, 1X B-27 supplement, 1X GlutaMAX, and (50 units/mL of penicillin/50 μg/mL of streptomycin) from Gibco (Gaithersburg, MD, USA), and human EGF and FGF-154 from Shenandoah Biotechnology (Warwick, PA, USA). The IDH1 mutant cell line was named 905 and will be referred to as IDH1 mutant or R132H IDH1 mutant. It is the only IDH1 mutant cell line used in the main figures. The IDH1 mutant Grade III astrocytoma was named BT 142 and is only used in the appendix figures. It is referred to as “IDH1 mutant” in Appendix A Figure A1 and “IDH1 mt 2” in Appendix A Figure A2. These cells were cultured in the same media as the IDH1 wildtype with the addition of 1 mL of 10 μg/mL PDGF. […] Patient-derived glioma stem cells were generated at the National Cancer Institute, National Institutes of Health (Bethesda, MD). […]

The conditions of series [3]: cited from earlier work.
In series [4] the test system is patient-derived GBMSC, IDH1 wildtype (0827). Description: Cell viability, Trypan Blue Exclusion, IDH1 wildtype GBMSC (0827). Conditions: Homo sapiens; single agent, 48 h, three-parameter model, Figure 4. Format: cell-based. Here is the method: The GBMSC lines used were patient-derived from recurring tumors and gifted to us by Kevin Woolard DVM, PhD from the University of California Davis. The cell lines were named 0827 and 0923. 0827 is the only IDH1 WT cell line used in the main figures in the manuscript and is referred to as IDH1 wildtype in Figure 6. 923 is used only in appendix and is referred to as “IDH1 WT” in Appendix A Figure A1 and “GB SC 2” in Appendix A Figure A2. The 0827 and 923 GBM stem cells were cultured in Neurobasal A minimal media with 1X N-2 supplement, 1X B-27 supplement, 1X GlutaMAX, and (50 units/mL of penicillin/50 μg/mL of streptomycin) from Gibco (Gaithersburg, MD, USA), and human EGF and FGF-154 from Shenandoah Biotechnology (Warwick, PA, USA). The IDH1 mutant cell line was named 905 and will be referred to as IDH1 mutant or R132H IDH1 mutant. It is the only IDH1 mutant cell line used in the main figures. The IDH1 mutant Grade III astrocytoma was named BT 142 and is only used in the appendix figures. It is referred to as “IDH1 mutant” in Appendix A Figure A1 and “IDH1 mt 2” in Appendix A Figure A2. These cells were cultured in the same media as the IDH1 wildtype with the addition of 1 mL of 10 µg/mL PDGF. […] Patient-derived glioma stem cells were generated at the National Cancer Institute, National Institutes of Health (Bethesda, MD). […]

In the case of `C(=C\c1ccccc1)/CN1CCN(C(c2ccccc2)c2ccccc2)CC1` [cinnarizine], the “concentration of maximum effect on pS6K” value in series [1] (highest dose 10 µM) is listed as 10 µM. Moreover, the “concentration at which significant inhibition of pS6K begins” value in series [1] (phospho-S6K relative to total S6K) was determined as 0.1 µM. For the same compound, in series [2], the “inhibition of mTORC1 (phosphorylation of pS6K)” value was “inhibitory trend”. The “chemical liability after prolonged exposure” value in series [3] was “can cause iatrogenic parkinsonism”.
In series [4], `Fc1ccc(C(c2ccc(F)cc2)N2CCN(C/C=C/c3ccccc3)CC2)cc1` [flunarizine] showed a half-inhibitory concentration (IC50) of 6.8 µM.

These data come from paper PMC7761300, “Novel mTORC1 Inhibitors Kill Glioblastoma Stem Cells” (Pharmaceuticals, 2020).
